PubChem BioAssay AID1259405 – NCATS, 2018
The whole screen tested about 50,000 reagents; below is an unselected part. In the full data, about 4,000 (8%) got an active call. 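Mouse siRNA library applied to hamster cells; one well for each siRNA.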 Reagents against one gene are numbered here.

Purpose: 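Silenced genes that increase secreted GFP made by CHO cells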 (primary screen)
Cells: Chinese hamster CHO-K1 ovary cells with stable secreted eGFP expression
Reagents: single siRNA against mouse genes, 0.8 pmol siRNA per well (2 µl of 400 nM stock)
Duration: 3 days
Measurement: 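Percent of the per-plate non-targeting control median for intracellular GFP per well by laser scanning cytometry and for cell viability by ATP luminescence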
Direction: GFP, % of control: higher = more GFP per well, higher productivity; viability (ATP), % of control: higher = more viable cells (more ATP)
Call rule: 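a knock-down is called active if GFP reaches 120% or more of non-targeting control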

gene,reagent,"GFP, % of control","viability (ATP), % of control",Call
"Fam171b (family with sequence similarity 171, member B)",1,108,90.8,inactive
"Fam171b (family with sequence similarity 171, member B)",2,87.9,84.5,inactive
"Fam171b (family with sequence similarity 171, member B)",3,94.8,90,inactive
"Gng12 (guanine nucleotide binding protein (G protein), gamma 12)",1,70,79.3,inactive
"Gng12 (guanine nucleotide binding protein (G protein), gamma 12)",2,87.4,68.2,inactive
"Gng12 (guanine nucleotide binding protein (G protein), gamma 12)",3,58.3,50.3,inactive
Eif5 (eukaryotic translation initiation factor 5),1,79.8,56.1,inactive
Eif5 (eukaryotic translation initiation factor 5),2,113,70.2,inactive
Eif5 (eukaryotic translation initiation factor 5),3,107,121,inactive
"Tpx2 (TPX2, microtubule-associated)",1,87.3,65.6,inactive
"Tpx2 (TPX2, microtubule-associated)",2,159,106,active
Klhl25 (kelch-like 25),1,61.1,72.6,inactive
Klhl25 (kelch-like 25),2,53.8,63.8,inactive
Klhl25 (kelch-like 25),3,68.4,59.9,inactive
Zfp52 (zinc finger protein 52),1,39.1,46.5,inactive
Zfp52 (zinc finger protein 52),2,61.5,70.4,inactive
Zfp52 (zinc finger protein 52),3,85.3,59.7,inactive
Mc1r (melanocortin 1 receptor),1,56,62.6,inactive
Mc1r (melanocortin 1 receptor),2,99.6,73.1,inactive
Mc1r (melanocortin 1 receptor),3,67.2,73.5,inactive
Aqp1 (aquaporin 1),1,86.3,84.5,inactive
Aqp1 (aquaporin 1),2,108,72.1,inactive
Aqp1 (aquaporin 1),3,102,84.4,inactive
Zfp454 (zinc finger protein 454),1,71.2,70.9,inactive
Zfp454 (zinc finger protein 454),2,44.3,45.5,inactive
Zfp454 (zinc finger protein 454),3,90.5,94.6,inactive
Snrpd2 (small nuclear ribonucleoprotein D2),1,130,47.5,active
Snrpd2 (small nuclear ribonucleoprotein D2),2,103,37.8,inactive
"Cpt1a (carnitine palmitoyltransferase 1a, liver)",1,111,71.9,inactive
"Cpt1a (carnitine palmitoyltransferase 1a, liver)",2,65.8,92.5,inactive
"Cpt1a (carnitine palmitoyltransferase 1a, liver)",3,86.8,62.3,inactive
Dync2li1 (dynein cytoplasmic 2 light intermediate chain 1),1,80,71.6,inactive
Dync2li1 (dynein cytoplasmic 2 light intermediate chain 1),2,67.1,92.6,inactive
Dync2li1 (dynein cytoplasmic 2 light intermediate chain 1),3,85.2,114,inactive
Washc5 (WASH complex subunit 5),1,90.5,102,inactive
Washc5 (WASH complex subunit 5),2,112,77.2,inactive
Washc5 (WASH complex subunit 5),3,69.8,71.6,inactive
Or10q1 (olfactory receptor family 10 subfamily Q member 1),1,25,19,inactive
Or10q1 (olfactory receptor family 10 subfamily Q member 1),2,70.8,92.7,inactive
Or10q1 (olfactory receptor family 10 subfamily Q member 1),3,181,81.5,active
Or5k1b (olfactory receptor family 5 subfamily K member 1B),1,95.7,93.5,inactive
Or5k1b (olfactory receptor family 5 subfamily K member 1B),2,84.9,79.2,inactive
Or5k1b (olfactory receptor family 5 subfamily K member 1B),3,51.4,78.5,inactive
Rln1 (relaxin 1),1,88.6,65.7,inactive
Rln1 (relaxin 1),2,33.2,38.8,inactive
Rln1 (relaxin 1),3,71.9,68.5,inactive
Ppp4r3b (protein phosphatase 4 regulatory subunit 3B),1,76.6,65.4,inactive
Ppp4r3b (protein phosphatase 4 regulatory subunit 3B),2,73.9,91.3,inactive
Ppp4r3b (protein phosphatase 4 regulatory subunit 3B),3,66.6,78,inactive
"Sec24c (SEC24 homolog C, COPII coat complex component)",1,76.5,97.3,inactive
"Sec24c (SEC24 homolog C, COPII coat complex component)",2,121,89.4,active
Sphk2 (sphingosine kinase 2),1,60.8,73.6,inactive
Xkr8 (XK related 8),1,48.3,74.6,inactive
Xkr8 (XK related 8),2,51.8,55.4,inactive
Xkr8 (XK related 8),3,87.6,97.2,inactive

As entered above.
Value of Aqp1 (aquaporin 1) #2 under “GFP, % of control”: 108
Entry of Dync2li1 (dynein cytoplasmic 2 light intermediate chain 1) #1 under “viability (ATP), % of control”: 71.6
Dync2li1 (dynein cytoplasmic 2 light intermediate chain 1) #3, viability (ATP), % of control = 114
Or10q1 (olfactory receptor family 10 subfamily Q member 1) #3, GFP, % of control = 181
Entry of Eif5 (eukaryotic translation initiation factor 5) #2 in “Call”: inactive
Entry of Ppp4r3b (protein phosphatase 4 regulatory subunit 3B) #2 in “viability (ATP), % of control”: 91.3

Continued:
gene,reagent,"GFP, % of control","viability (ATP), % of control",Call
Oxa1l (oxidase assembly 1-like),1,75,75.7,inactive
Oxa1l (oxidase assembly 1-like),2,110,94.1,inactive
Oxa1l (oxidase assembly 1-like),3,121,92.3,active
"Tonsl (tonsoku-like, DNA repair protein)",1,116,53.4,inactive
"Tonsl (tonsoku-like, DNA repair protein)",2,30.5,97.6,inactive
"Tonsl (tonsoku-like, DNA repair protein)",3,109,88.6,inactive
Agpat2 (1-acylglycerol-3-phosphate O-acyltransferase 2),1,86.5,76.6,inactive
Agpat2 (1-acylglycerol-3-phosphate O-acyltransferase 2),2,55.9,62.8,inactive
Agpat2 (1-acylglycerol-3-phosphate O-acyltransferase 2),3,67.4,60.5,inactive
Zfp444 (zinc finger protein 444),1,46.2,54.2,inactive
Zfp444 (zinc finger protein 444),2,91.3,97.6,inactive
"Kras (Kras proto-oncogene, GTPase)",1,105,106,inactive
"Kras (Kras proto-oncogene, GTPase)",2,77.8,46.5,inactive
"Kras (Kras proto-oncogene, GTPase)",3,62.3,55.2,inactive
Rpp40 (ribonuclease P 40 subunit),1,41.4,49.2,inactive
Rpp40 (ribonuclease P 40 subunit),2,96,89.7,inactive
Rpp40 (ribonuclease P 40 subunit),3,49.5,49.4,inactive
Arhgap33 (Rho GTPase activating protein 33),1,71.6,92.9,inactive
Arhgap33 (Rho GTPase activating protein 33),2,96.9,61.6,inactive
Arhgap33 (Rho GTPase activating protein 33),3,63.8,62.6,inactive
Sc5d (sterol-C5-desaturase),1,52.8,97.2,inactive
Sc5d (sterol-C5-desaturase),2,87.4,88.7,inactive
Sc5d (sterol-C5-desaturase),3,46.6,69.1,inactive
Lrp4 (low density lipoprotein receptor-related protein 4),1,73.3,52.1,inactive
Lrp4 (low density lipoprotein receptor-related protein 4),2,72.1,86.8,inactive
Lrp4 (low density lipoprotein receptor-related protein 4),3,69,74.8,inactive
Cep162 (centrosomal protein 162),1,56.5,77.2,inactive
Cep162 (centrosomal protein 162),2,58,61.4,inactive
Cep162 (centrosomal protein 162),3,73.8,83.6,inactive
Phyhipl (phytanoyl-CoA hydroxylase interacting protein-like),1,93.6,41,inactive
Phyhipl (phytanoyl-CoA hydroxylase interacting protein-like),2,34.7,27.4,inactive
Phyhipl (phytanoyl-CoA hydroxylase interacting protein-like),3,70.6,87.1,inactive
Ptprc (protein tyrosine phosphatase receptor type C),1,102,97,inactive
Ptprc (protein tyrosine phosphatase receptor type C),2,68.7,59.4,inactive
Ptprc (protein tyrosine phosphatase receptor type C),3,94.5,105,inactive
"Cma1 (chymase 1, mast cell)",1,57.7,90.7,inactive
"Cma1 (chymase 1, mast cell)",2,85.1,88.3,inactive
"Cma1 (chymase 1, mast cell)",3,61.9,51.9,inactive
Slfn5 (schlafen 5),1,66,38.6,inactive
Slfn5 (schlafen 5),2,58.6,56.4,inactive
Slfn5 (schlafen 5),3,51.8,44.1,inactive
Asph (aspartate-beta-hydroxylase),1,83.4,78,inactive
Asph (aspartate-beta-hydroxylase),2,86.9,64,inactive
Asph (aspartate-beta-hydroxylase),3,81.9,62.5,inactive
Pabir3 (PABIR family member 3),1,98.5,91.2,inactive
Pabir3 (PABIR family member 3),2,71.9,59.1,inactive
Pabir3 (PABIR family member 3),3,103,75,inactive
9930038B18Rik (RIKEN cDNA 9930038B18 gene),1,101,81.2,inactive
9930038B18Rik (RIKEN cDNA 9930038B18 gene),2,46,46.6,inactive
9930038B18Rik (RIKEN cDNA 9930038B18 gene),3,78.8,110,inactive
Ogn (osteoglycin),1,131,70.5,active
Ogn (osteoglycin),2,93.7,86.7,inactive
Ogn (osteoglycin),3,61.3,66.5,inactive
